Results are given in words; binding and its absence hold for the method and conditions named. In cells and extracts the contact can be indirect. Binding can be weak; no strength is given. For some of these results: Where a sequence is shown, tags or fusion partners need not be part of it.
B1: Flag‐ATG4C (enzyme, UniProt Q96DT6 1-458)
chain: MEATGTDEVDKLKTKFISAWNNMKYSWVLKTKTYFSRNSPVLLLGKCYHFKYEDEDKTLPAESGCTIEDHVIAGNVEEFRKDFISRIWLTYREEFPQIEGSALTTDCGWGCTLRTGQMLLAQGLILHFLGRAWTWPDALNIENSDSESWTSHTVKKFTASFEASLSGEREFKTPTISLKETIGKYSDDHEMRNEVYHRKIISWFGDSPLALFGLHQLIEYGKKSGKKAGDWYGPAVVAHILRKAVEEARHPDLQGITIYVAQDCTVYNSDVIDKQSASMTSDNADDKAVIILVPVRLGGERTNTDYLEFVKGILSLEYCVGIIGGKPKQSYYFAGFQDDSLIYMDPHYCQSFVDVSIKDFPLETFHCPSPKKMSFRKMDPSCTIGFYCRNVQDFKRASEEITKMLKFSSKEKYPLFTFVNGHSRDYDFTSTTTNEEDLFSEDEKKQLKRFSTEEFVLL
B2: GST‐ATG4A (enzyme)
chain: MESVLSKYEDQITIFTDYLEEYPDTDELVWILGKQHLLKTEKSKLLSDISARLWFTYRRKFSPIGGTGPSSDAGWGCMLRCGQMMLAQALICRHLGRDWSWEKQKEQPKEYQRILQCFLDRKDCCYSIHQMAQMGVGEGKSIGEWFGPNTVAQVLKKLALFDEWNSLAVYVSMDNTVVIEDIKKMCRVLPLSADTAGDRPPDSLTASNQSKGTSAYCSAWKPLLLIVPLRLGINQINPVYVDAFKECFKMPQSLGALGGKPNNAYYFIGFLGDELIFLDPHTTQTFVDTEENGTVNDQTFHCLQSPQRMNILNLDPSVALGFFCKEEKDFDNWCSLVQKEILKENLRMFELVQKHPSHWPPFVPPAKPEVTTTGAEFIDSTEQLEEFDLEEDFEILSV
B3: TBK1 K38A (enzyme, UniProt Q9UHD2 1-729)
chain: MQSTSNHLWLLSDILGQGATANVFRGRHKKTGDLFAIAVFNNISFLRPVDVQMREFEVLKKLNHKNIVKLFAIEEETTTRHKVLIMEFCPCGSLYTVLEEPSNAYGLPESEFLIVLRDVVGGMNHLRENGIVHRDIKPGNIMRVIGEDGQSVYKLTDFGAARELEDDEQFVSLYGTEEYLHPDMYERAVLRKDHQKKYGATVDLWSIGVTFYHAATGSLPFRPFEGPRRNKEVMYKIITGKPSGAISGVQKAENGPIDWSGDMPVSCSLSRGLQVLLTPVLANILEADQEKCWGFDQFFAETSDILHRMVIHVFSLQQMTAHKIYIHSYNTATIFHELVYKQTKIISSNQELIYEGRRLVLEPGRLAQHFPKTTEENPIFVVSREPLNTIGLIYEKISLPKVHPRYDLDGDASMAKAITGVVCYACRIASTLLLYQELMRKGIRWLIELIKDDYNETVHKKTEVVITLDFCIRNIEKTVKVYEKLMKINLEAAELGEISDIHTKLLRLSSSQGTIETSLQDIDSRLSPGGSLADAWAHQEGTHPKDRNVEKLQVLLNCMTEIYYQFKKDKAERRLAYNEEQIHKFDKQKLYYHATKAMTHFTDECVKKYEAFLNKSEEWIRKMLHLRKQLLSLTNQCFDIEEEVSKYQEYTNELQETLPQKMFTASSGIKHTMTPIYPSSNTLVEMTLGMKKLKEEMEGVVKELAENNHILERFGSLTMDGGLRNVDCL

The chains behind the UniProt entries cited, without tags or fusion partners. Where a name states a change or a piece, a line headed by the entry shows the natural chain unless it says otherwise.
UniProt Q9BXW4: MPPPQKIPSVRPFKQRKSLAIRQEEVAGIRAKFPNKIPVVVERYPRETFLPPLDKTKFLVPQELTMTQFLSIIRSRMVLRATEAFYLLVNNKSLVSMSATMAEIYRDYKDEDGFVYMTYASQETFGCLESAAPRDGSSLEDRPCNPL

Target: GFP‐LC3C WT (human) (UniProt Q9BXW4)
Experiment: co-IP; HEK293T co-transfected with Flag‐ATG4A, B, C or D and GFP‐LC3C or GFP‐GABARAP‐L2 (WT or mutants); GFP‐Trap_A beads, 2 h at 4°C, Western blot

Question: How did the binding turn out when “Flag‐ATG4D (from UniProt Q86TL0 1-474) (enzyme)” was run?
Answer: Its binding is “binds”.

Question: How did the binding turn out when “Flag‐ATG4B (from UniProt Q9Y4P1) (enzyme)” was run?
Answer: Its binding is “binds”.

Question: How did the binding turn out when B1 was run?
Answer: Its binding is “binds”.

Question: Which binding does the source give for B2 here?
Answer: Its binding is “binds”.

Target: GST‐LC3C (human) (UniProt Q9BXW4)
Experiment: pull-down; GST‐LC3C or GST‐GABARAP‐L2 on glutathione‐Sepharose beads mixed with cleared extracts of HeLa or HEK293T cells (endogenous TBK1, or HEK293T transfected with TBK1 constructs), 2 h at 4°C, washed four times in lysis buffer, Western blot; only the target purified

Question: Which binding does the source give for “Endogenous TBK1 (from UniProt Q9UHD2 1-729) (enzyme)” here?
Answer: The binding was “binds”.

Question: Which binding does the source give for “full‐length TBK1 (from UniProt Q9UHD2 1-729) (enzyme)” here?
Answer: Its binding is “binds”.

Question: How did the binding turn out when B3 was run?
Answer: The binding was “binds”.
